The values that follow come from article PMC7819943, “Rice protein-binding microarrays: a tool to detect cis-acting elements near promoter regions in rice”.

The list shows a part of the results.

The assay deals with T1, OsSMF1 (Oryza sativa, UniProt Q6ZLB0 1-436).
T1 sequence: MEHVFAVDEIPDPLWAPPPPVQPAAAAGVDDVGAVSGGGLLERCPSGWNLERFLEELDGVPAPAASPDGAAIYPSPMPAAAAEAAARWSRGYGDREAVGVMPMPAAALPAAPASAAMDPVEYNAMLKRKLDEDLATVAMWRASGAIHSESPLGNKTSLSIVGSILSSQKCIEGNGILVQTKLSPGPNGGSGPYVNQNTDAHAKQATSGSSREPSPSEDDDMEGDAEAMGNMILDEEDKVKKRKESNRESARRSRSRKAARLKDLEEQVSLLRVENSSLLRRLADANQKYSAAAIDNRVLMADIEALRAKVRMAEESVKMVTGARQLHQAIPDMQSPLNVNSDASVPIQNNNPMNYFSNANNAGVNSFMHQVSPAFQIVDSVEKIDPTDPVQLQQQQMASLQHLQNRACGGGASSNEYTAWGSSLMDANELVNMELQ
Description: protein-binding microarray (RPBM); PBS, 2% BSA, 51.3 ng/ul salmon testes DNA, 50 uM zinc acetate, 200 nM TF, 25 C, 1 h; high values mean tight binding. The following applies: protein: recombinant; tags: N-terminal polyhistidine and DsRed monomer fusion (pET32a); chain copies: 2; label: CyDye5-dUTP incorporated in the synthesized complementary strand; 3' TTTTT single-stranded linker to array surface; dsDNA, one strand shown. Put shortly: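 The binding signal for each feature is its fluorescence intensity in arbitrary units. An Axon 4000B scanner was used to read a custom Agilent array that had been made double-stranded with Cy5-dUTP primer extension, blocked with 2% BSA, incubated at 25 °C for 1 h with 200 nM protein in PBS, 2% BSA, salmon testes DNA and 50 µM zinc acetate, and washed. The protein was an N-terminal polyhistidine–DsRed transcription factor fusion from E. coli BL21-CodonPlus, purified on Ni–NTA.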
Take “TTTGATCACATCTTACACTGCCGGGTGGGGTCAGCATCTGCGGAGTCACCTAGTGCAG”: the binding signal is 3300 fluorescence intensity (a.u.).
For “TTTCATCCCCATTATATTCTTCTAGCATGACTCATTTGCACGGAGTCACCTAGTGCAG”, the binding signal is 7400 fluorescence intensity (a.u.).
Regarding “GCCTCGAGGGATGAAATTCCACATCCCTATATTCACATGTCGGAGTCACCTAGTGCAG”, the binding signal was 3440 fluorescence intensity (a.u.).
On to “ACCAAGAGGATTACCTGTGTAGGTGTTGTGTGCTGTGGAACGGAGTCACCTAGTGCAG”, for which the binding signal is 11000 fluorescence intensity (a.u.).
The same measure for “CATGTGAGTATTGTGTGATGACATAATACGGAGTTGCAGCCGGAGTCACCTAGTGCAG”: 5080 fluorescence intensity (a.u.); for “CCCCGCCGACGCCGATGCCGACGCCGCCGCCGCCTCCCCACGGAGTCACCTAGTGCAG”: 3240 fluorescence intensity (a.u.); for “CGCGTCTGCATACAGGTCATCCATCTCTCTCACTCTGCCTCGGAGTCACCTAGTGCAG”: 4340 fluorescence intensity (a.u.).
In the case of “GTCAGTCAAGGTATTGCAGAGGATACTTCTGACTTGGTATCGGAGTCACCTAGTGCAG”, the binding signal was 3740 fluorescence intensity (a.u.).
In the case of “CGCATGTGTCATCCGCGTCGGTCTCGTTCCTCTCCTTCCTCGGAGTCACCTAGTGCAG”, the binding signal was 5150 fluorescence intensity (a.u.).
With “CTGATGATGATGGCAGTGACGATTGCTAACACCCTGGTGCCGGAGTCACCTAGTGCAG”, the binding signal was 20800 fluorescence intensity (a.u.).
As to “GTTGCGTACTTGCGTCATTGCGCCAGGTGAAAGTGAACGACGGAGTCACCTAGTGCAG”, the binding signal was 3230 fluorescence intensity (a.u.).
As for “CCGGTGACGTGTATCCGCCGTGTCAGCCTCGTCCGGCTTCCGGAGTCACCTAGTGCAG”, the binding signal is 15900 fluorescence intensity (a.u.).
For the sequence “AAACAGCGGCTGCTGACGTCTCCGCAAACAATAGATCCGTCGGAGTCACCTAGTGCAG”, the binding signal is 8360 fluorescence intensity (a.u.).
The same measure for “GCTCTCGCGTCAGGGGCATACGTGTCCAAACTAAACCCCGCGGAGTCACCTAGTGCAG”: 14500 fluorescence intensity (a.u.); for “TCGTACGCGGCCAGATCGTCGGCGGTCGGGGCGTCACCGTCGGAGTCACCTAGTGCAG”: 3210 fluorescence intensity (a.u.).
Regarding “GAACATCATCATCCACGAAAATGTCGTCACATGCATACATCGGAGTCACCTAGTGCAG”, the binding signal is 4100 fluorescence intensity (a.u.).
Regarding “GAACTCCTACGTCGTGGCCTCGCTGAATGGCTTAATGCCACGGAGTCACCTAGTGCAG”, the binding signal was 3340 fluorescence intensity (a.u.).
“CTTGTGTCCTGATAATACGACTCCTCGTGCCATCCCAGGACGGAGTCACCTAGTGCAG”: the binding signal is 7900 fluorescence intensity (a.u.).
To “GCCCGAGCTCGACGACGGCAGCGGGGCGGTGGGGCGAGCTCGGAGTCACCTAGTGCAG” belongs 4040 fluorescence intensity (a.u.).
In the case of “GCTGTCGTACTACTCCCTCCCGCTTCTCACGCCGTCAGCGCGGAGTCACCTAGTGCAG”, the binding signal is 4060 fluorescence intensity (a.u.).
To “AAACTGACTGGCCAGTCTCCAACTGGTGATACTCTGCTCTCGGAGTCACCTAGTGCAG” belongs 3550 fluorescence intensity (a.u.); to “GTCGGCCCATGAATATGCTGACGTCACTTTTGAGCCCACTCGGAGTCACCTAGTGCAG”, 36600 fluorescence intensity (a.u.).
Turning to “CTATTACTGTTAGAAATTAGAAATGTGCATGATTCTGAATCGGAGTCACCTAGTGCAG”, the binding signal was 22200 fluorescence intensity (a.u.).
For the sequence “CCCGCAAGTCCTCCTGGTTGATTTTGACACGCTGGCAGAGCGGAGTCACCTAGTGCAG”, the binding signal was 5940 fluorescence intensity (a.u.).
For the sequence “ATATGGATTTTACAAGTTTTAGGTACTTTCCTTTTATAATCGGAGTCACCTAGTGCAG”, the binding signal is 25700 fluorescence intensity (a.u.).
Take “CCAATCCGCCAAACGGCACACGCACACACGCGCAAGAGGACGGAGTCACCTAGTGCAG”: the binding signal is 3280 fluorescence intensity (a.u.).
Regarding “AATCCAGTGTCATTTGACTCATTTCCTCTTCCTGCCCTCGCGGAGTCACCTAGTGCAG”, the binding signal was 5660 fluorescence intensity (a.u.).
To “CCGACAGTGGACGACTTTGTGACGCCGCCGCTGTTTAGGGCGGAGTCACCTAGTGCAG” belongs 3610 fluorescence intensity (a.u.); to “TTTTATCCTACGTGGCTGCTGAGTCAGCGTGGGACCCACACGGAGTCACCTAGTGCAG”, 25000 fluorescence intensity (a.u.).
In the case of “GTACACCAAGTGTGGGAGCGTTGGCGACGCGGTGAGGCTGCGGAGTCACCTAGTGCAG”, the binding signal is 3290 fluorescence intensity (a.u.).
The same measure for “CATCCGTATTTTAATGTATGACACCGTTGACTTTTCGACTCGGAGTCACCTAGTGCAG”: 3790 fluorescence intensity (a.u.); for “ATGATAGCAATATGTGTTGTGTCATACCATCTTTATTTTGCGGAGTCACCTAGTGCAG”: 4900 fluorescence intensity (a.u.); for “AGATGTTACGTGACACATGGCGCACACATCTTCCAAATCGCGGAGTCACCTAGTGCAG”: 3160 fluorescence intensity (a.u.).
For the sequence “TGTCCCCGCGCATCCGCGGACGTGGCTGGGCAACTGCTCGCGGAGTCACCTAGTGCAG”, the binding signal is 8030 fluorescence intensity (a.u.).
Take “GTCAGCAATACCGCATTATGATAGAAGTGTAACATTCAACCGGAGTCACCTAGTGCAG”: the binding signal is 19600 fluorescence intensity (a.u.).
Take “CCACAGCTCGCCGCCGTCCATGCTGCAGGTATGTATCATCCGGAGTCACCTAGTGCAG”: the binding signal was 3220 fluorescence intensity (a.u.).
To “ATGACTTTGGGCTTGGGCCATGACGCACTGCCTGCCTGCCCGGAGTCACCTAGTGCAG” belongs 5100 fluorescence intensity (a.u.).
For “CACTACTGTAATGGCCACGCCACCATCGCCACAGATCAATCGGAGTCACCTAGTGCAG”, the binding signal was 3750 fluorescence intensity (a.u.).
As for “CCACGGAGACTAGACAGCCCATCCCCACATCAGCCAGCGACGGAGTCACCTAGTGCAG”, the binding signal was 3720 fluorescence intensity (a.u.).
In the case of “GTTATAAGACGTTTTGATTTTAGTCAAAGTCAAACTATTCCGGAGTCACCTAGTGCAG”, the binding signal is 32600 fluorescence intensity (a.u.).
The same measure for “CCGCCGGCCCTTGCTGACGCTATCGATCGTGTCCTAACATCGGAGTCACCTAGTGCAG”: 4930 fluorescence intensity (a.u.).
As for “ATATCCAAGTGACAGTGGTTGGTTTGCTGCGGACATGGCACGGAGTCACCTAGTGCAG”, the binding signal is 3410 fluorescence intensity (a.u.).
